The results in this text go back to PMC3784504.

Amino acid sequences for entries named in this document (tags omitted).
UniProt P23696: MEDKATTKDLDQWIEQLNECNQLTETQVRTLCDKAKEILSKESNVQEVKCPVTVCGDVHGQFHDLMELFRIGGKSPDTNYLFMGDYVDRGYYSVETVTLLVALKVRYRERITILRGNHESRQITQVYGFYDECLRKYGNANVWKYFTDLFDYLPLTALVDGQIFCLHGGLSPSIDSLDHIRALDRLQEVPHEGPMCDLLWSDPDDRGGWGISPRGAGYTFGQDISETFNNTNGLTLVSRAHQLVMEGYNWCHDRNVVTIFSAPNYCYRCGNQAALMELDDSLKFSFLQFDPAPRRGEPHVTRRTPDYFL

Holding throughout (test): affinity purification with mass spectrometry; NAP1, SA, SMC1 or PP2A (catalytic subunit) immunopurified from 0-12 hour Drosophila embryo nuclear extract (NAP1 and SA also from S2 cells) with antibodies cross-linked to protein A sepharose; washes with HEMG, 600 mM KCl, 0.1% NP-40; SDS-PAGE, mass spectrometry
For test [1], the target named is T1, cohesin subunit SMC1 (Drosophila (endogenous in embryos and S2 cells)) (UniProt Q9VCD8).
T1 sequence: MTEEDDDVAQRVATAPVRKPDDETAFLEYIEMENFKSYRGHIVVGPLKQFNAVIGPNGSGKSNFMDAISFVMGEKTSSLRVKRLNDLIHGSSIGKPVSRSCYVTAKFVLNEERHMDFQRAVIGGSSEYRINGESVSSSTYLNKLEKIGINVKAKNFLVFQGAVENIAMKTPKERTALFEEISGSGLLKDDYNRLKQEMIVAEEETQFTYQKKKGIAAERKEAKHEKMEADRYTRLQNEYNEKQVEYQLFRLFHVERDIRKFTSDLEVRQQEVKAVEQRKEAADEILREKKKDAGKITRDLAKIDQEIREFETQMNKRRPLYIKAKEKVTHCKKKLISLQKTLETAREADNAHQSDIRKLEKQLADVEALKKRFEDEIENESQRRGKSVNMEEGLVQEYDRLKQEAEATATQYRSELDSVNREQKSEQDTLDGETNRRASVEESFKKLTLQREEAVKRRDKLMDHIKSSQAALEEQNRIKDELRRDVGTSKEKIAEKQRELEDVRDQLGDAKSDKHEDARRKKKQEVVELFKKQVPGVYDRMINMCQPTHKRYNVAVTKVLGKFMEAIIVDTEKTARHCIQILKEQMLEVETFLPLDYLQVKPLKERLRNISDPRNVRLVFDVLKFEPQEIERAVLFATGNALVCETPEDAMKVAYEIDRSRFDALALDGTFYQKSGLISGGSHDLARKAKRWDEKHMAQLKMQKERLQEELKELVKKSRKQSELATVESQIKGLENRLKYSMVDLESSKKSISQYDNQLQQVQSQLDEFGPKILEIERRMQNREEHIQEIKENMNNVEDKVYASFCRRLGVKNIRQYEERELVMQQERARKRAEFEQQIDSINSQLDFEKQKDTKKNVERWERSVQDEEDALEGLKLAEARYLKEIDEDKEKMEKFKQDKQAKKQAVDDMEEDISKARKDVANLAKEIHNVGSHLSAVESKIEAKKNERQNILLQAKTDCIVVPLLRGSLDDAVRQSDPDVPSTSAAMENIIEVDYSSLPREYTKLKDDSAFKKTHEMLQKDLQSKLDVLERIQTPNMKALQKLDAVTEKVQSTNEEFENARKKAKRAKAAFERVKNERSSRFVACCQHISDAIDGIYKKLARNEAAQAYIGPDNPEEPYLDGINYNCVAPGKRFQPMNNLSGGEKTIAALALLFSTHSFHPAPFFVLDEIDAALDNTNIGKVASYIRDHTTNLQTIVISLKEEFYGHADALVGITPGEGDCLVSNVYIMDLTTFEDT

For test [2], the target named is cohesin subunit stromalin (SA) (Drosophila (endogenous in embryos and S2 cells)).
Test [3] addresses T2, histone chaperone NAP1 (Drosophila (endogenous in embryos and S2 cells)) (UniProt Q9W1G7).
T2 sequence: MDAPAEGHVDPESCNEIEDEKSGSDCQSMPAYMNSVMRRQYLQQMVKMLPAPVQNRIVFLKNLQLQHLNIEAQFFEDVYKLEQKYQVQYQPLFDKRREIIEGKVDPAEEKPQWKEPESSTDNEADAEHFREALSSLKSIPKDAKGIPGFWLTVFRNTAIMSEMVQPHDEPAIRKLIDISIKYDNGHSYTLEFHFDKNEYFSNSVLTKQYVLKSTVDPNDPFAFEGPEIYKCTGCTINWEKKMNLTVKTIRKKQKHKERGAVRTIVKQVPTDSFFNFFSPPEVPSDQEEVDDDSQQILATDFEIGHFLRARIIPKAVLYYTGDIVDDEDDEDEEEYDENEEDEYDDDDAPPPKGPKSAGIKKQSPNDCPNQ

The target in test [4] is protein phosphatase 2A (PP2A) catalytic subunit (Drosophila (endogenous in embryos and S2 cells)) (UniProt P23696).

Results are given in words; binding and its absence hold for the method and conditions named. Binding seen in cells or lysates may run through a third protein. Here binding means that the protein was enriched with, or labelled near, the bait; the list need not be complete. For some assays here: No binding means not detected with the bait. For some assays here: Tags and fused reporters may be left off the sequences shown.

B1: histone chaperone NAP1 (protein, UniProt Q9W1G7 1-370)
chain: MDAPAEGHVDPESCNEIEDEKSGSDCQSMPAYMNSVMRRQYLQQMVKMLPAPVQNRIVFLKNLQLQHLNIEAQFFEDVYKLEQKYQVQYQPLFDKRREIIEGKVDPAEEKPQWKEPESSTDNEADAEHFREALSSLKSIPKDAKGIPGFWLTVFRNTAIMSEMVQPHDEPAIRKLIDISIKYDNGHSYTLEFHFDKNEYFSNSVLTKQYVLKSTVDPNDPFAFEGPEIYKCTGCTINWEKKMNLTVKTIRKKQKHKERGAVRTIVKQVPTDSFFNFFSPPEVPSDQEEVDDDSQQILATDFEIGHFLRARIIPKAVLYYTGDIVDDEDDEDEEEYDENEEDEYDDDDAPPPKGPKSAGIKKQSPNDCPNQ
With B1, the binding entry in test [1] and in test [2] was “binds” throughout.

B2: cohesin subunit SMC1 (protein, UniProt Q9VCD8 1-1238)
chain: MTEEDDDVAQRVATAPVRKPDDETAFLEYIEMENFKSYRGHIVVGPLKQFNAVIGPNGSGKSNFMDAISFVMGEKTSSLRVKRLNDLIHGSSIGKPVSRSCYVTAKFVLNEERHMDFQRAVIGGSSEYRINGESVSSSTYLNKLEKIGINVKAKNFLVFQGAVENIAMKTPKERTALFEEISGSGLLKDDYNRLKQEMIVAEEETQFTYQKKKGIAAERKEAKHEKMEADRYTRLQNEYNEKQVEYQLFRLFHVERDIRKFTSDLEVRQQEVKAVEQRKEAADEILREKKKDAGKITRDLAKIDQEIREFETQMNKRRPLYIKAKEKVTHCKKKLISLQKTLETAREADNAHQSDIRKLEKQLADVEALKKRFEDEIENESQRRGKSVNMEEGLVQEYDRLKQEAEATATQYRSELDSVNREQKSEQDTLDGETNRRASVEESFKKLTLQREEAVKRRDKLMDHIKSSQAALEEQNRIKDELRRDVGTSKEKIAEKQRELEDVRDQLGDAKSDKHEDARRKKKQEVVELFKKQVPGVYDRMINMCQPTHKRYNVAVTKVLGKFMEAIIVDTEKTARHCIQILKEQMLEVETFLPLDYLQVKPLKERLRNISDPRNVRLVFDVLKFEPQEIERAVLFATGNALVCETPEDAMKVAYEIDRSRFDALALDGTFYQKSGLISGGSHDLARKAKRWDEKHMAQLKMQKERLQEELKELVKKSRKQSELATVESQIKGLENRLKYSMVDLESSKKSISQYDNQLQQVQSQLDEFGPKILEIERRMQNREEHIQEIKENMNNVEDKVYASFCRRLGVKNIRQYEERELVMQQERARKRAEFEQQIDSINSQLDFEKQKDTKKNVERWERSVQDEEDALEGLKLAEARYLKEIDEDKEKMEKFKQDKQAKKQAVDDMEEDISKARKDVANLAKEIHNVGSHLSAVESKIEAKKNERQNILLQAKTDCIVVPLLRGSLDDAVRQSDPDVPSTSAAMENIIEVDYSSLPREYTKLKDDSAFKKTHEMLQKDLQSKLDVLERIQTPNMKALQKLDAVTEKVQSTNEEFENARKKAKRAKAAFERVKNERSSRFVACCQHISDAIDGIYKKLARNEAAQAYIGPDNPEEPYLDGINYNCVAPGKRFQPMNNLSGGEKTIAALALLFSTHSFHPAPFFVLDEIDAALDNTNIGKVASYIRDHTTNLQTIVISLKEEFYGHADALVGITPGEGDCLVSNVYIMDLTTFEDT
B2: the binding result in test [2], in test [3] and in test [4] was “binds” each time.

B3: cohesin subunit SMC3 (protein, UniProt Q9VXE9 1-1200)
chain: MHIKQIIIQGFKSYKDQTVVEPFDKRHNVVVGRNGSGKSNFFYAIQFVLSDEFTHLRPEQRQSLLHEGTGARVISAYVEIIFDNSDNRVPIDKEEIFLRRVIGAKKDQYFLNKKVVPRNEVVNLLESAGFSSSNPYYIVKQGKINQMATAADSYRLKLLREVAGTRVYDERKEESLNLLRETDSKVEKISEYLKTIEDRLQTLEEEKEELKEYQKWDKTRRTLEYIRYETELKDTKKALDELQLQRKSSSDKKKIYNIEIQKAQEKIKDVQKNLKEAKKKVQSTKEERSVLMTEQQQLLREKTKLDLTIVDLNDEVQGDNKSKERADQELKNLKVTIAEREKELDDVKPKYEAMKRKEEDCSRELQLKEQKRKELYAKQGRGSQFSSREDRDKWITNELKSISKQTRDKIAHHAKLVEDLKKDATSEKDLGQKIEEHSSELEQLRLQIDEHNKKYYELKKTKDQHQSMRNELWRKETQMTQQLQTHKEELSRADQALRSMAGKPILNGCDSVRKVLDSFVERGGQSAEIARAYYGPVIENFSCDKTIYTAVEVTAANRLFHHIVESEYEGTQILKEMNKLKLPGEVTFMPLNRLQVKIHDYPDDPDSIPMISKLKYDEQHDKALRYIFGKTLICRNLERATELAKSTGLDCVTLDGDQVSSKGSLTGGYFNTSRSRLEMQKKRTEYTSQIAEFEKKLSKLRNELKSTENNINSIVSEMQKTETKQGKSKDVFEKVQGEIRLMKEELVRIEQYRAPKERSLAQCKASLESMTSTKSSLEAELKQELMSTLSSQDQREIDQLNDDIRRLNQENKEAFTQRMQFEVRKNKLDNLLINNLFRRRDELIQALQEISVEDRKRKLNNCKTELVSAEKRIKKVNSDLEEIEKRVMEAVQLQKELQQELETHVRKEKEAEENLNKDSKQLEKWSTKENMLNEKIDECTEKIASLGAVPLVDPSYTRMSLKNIFKELEKANQHLKKYNHVNKKALDQFLSFSEQKEKLYRRKEELDIGDQKIHMLIQSLEMQKVEAIQFTFRQVAQNFTKVFKKLVPMGAGFLILKTKDNEGDEMEKEVENSDAFTGIGIRVSFTGVEAEMREMNQLSGGQKSLVALALIFSIQKCDPAPFYLFDEIDQALDAMHRKAVANMIHELSDTAQFITTTFRPELLENAHKFYGVRFRNKVSHIDCVTREEAKDFVEDDSTHA
As to B3, the binding result in test [2], in test [3] and in test [4] was “binds” in each case.

B4: MRG15 (protein, UniProt Q9Y0I1 1-424)
chain: MGEVKPAKVENYSTGTDANTLFVDGERVLCFHGPLIYEAKVLKTKPDATPVEYYIHYAGWSKNWDEWVPENRVLKYNDDNVKRRQELARQCGERSKKDNKKGSAKAKKMEQMRNESRASTPSKDSNTSQSTASSTPTTSAGPGSKSEAGSTGTTTTNSTANSTTSRAHRKSTQSTPSTARPGTPSDKKEDPAAAETTEEEGPVAPKKKRMSEQRPSLTGSDVAEKPLPPTTTPSTPTTEPAPCVESEEAYAAKVEVKIKIPDELKHYLTDDWYAVVREHKLLELPAKVTVQQISEQYLAHKKSVKSTSASKEVAINDVLDGIVEYFNVMLGSQLLYKFERTQYADVMQKHPDTPLSELYGSFHLLRLFVRLGSMLSYSALDQQSMQNLLTHVQDFLKFLVKNSSIFFSMSNFINVDPEYVRNAQ
Take B4: the binding result is on record as “no binding” in test [1], “no binding” in test [2] and “binds” in test [3].
